Measured values reported in publication doi:10.1101/2022.11.15.516651.
Results are given in words; binding and its absence hold for the method and conditions named. In cells and extracts the contact can be indirect. A yes stands for co-enrichment or nearness to the bait. Other partners may have been found.

Amino acid sequences for entries named in this document (tags omitted). A change or cut given only in a name is not applied to a line headed by its entry. Chains listed by the source or under a name are the forms on record and can include a tag or linker. Residues count along the entry.
FLAG-SLC3A2 WTseq (P08195, residues 66-630): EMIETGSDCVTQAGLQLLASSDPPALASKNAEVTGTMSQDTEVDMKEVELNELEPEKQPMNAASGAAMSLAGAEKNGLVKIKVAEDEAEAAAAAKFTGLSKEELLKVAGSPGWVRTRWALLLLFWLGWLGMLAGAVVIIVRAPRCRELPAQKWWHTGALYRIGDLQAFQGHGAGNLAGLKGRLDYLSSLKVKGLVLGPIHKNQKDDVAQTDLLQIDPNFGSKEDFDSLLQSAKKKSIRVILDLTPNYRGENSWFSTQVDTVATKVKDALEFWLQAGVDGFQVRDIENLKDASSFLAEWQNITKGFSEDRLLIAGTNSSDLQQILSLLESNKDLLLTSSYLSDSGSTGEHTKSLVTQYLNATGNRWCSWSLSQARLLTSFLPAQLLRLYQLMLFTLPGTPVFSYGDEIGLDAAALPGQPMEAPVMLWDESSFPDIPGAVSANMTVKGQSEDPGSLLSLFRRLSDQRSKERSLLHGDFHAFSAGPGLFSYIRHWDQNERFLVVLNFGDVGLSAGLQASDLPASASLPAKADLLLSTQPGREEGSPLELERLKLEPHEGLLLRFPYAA
FLAG-SLC3A2 A273N (P08195, form named): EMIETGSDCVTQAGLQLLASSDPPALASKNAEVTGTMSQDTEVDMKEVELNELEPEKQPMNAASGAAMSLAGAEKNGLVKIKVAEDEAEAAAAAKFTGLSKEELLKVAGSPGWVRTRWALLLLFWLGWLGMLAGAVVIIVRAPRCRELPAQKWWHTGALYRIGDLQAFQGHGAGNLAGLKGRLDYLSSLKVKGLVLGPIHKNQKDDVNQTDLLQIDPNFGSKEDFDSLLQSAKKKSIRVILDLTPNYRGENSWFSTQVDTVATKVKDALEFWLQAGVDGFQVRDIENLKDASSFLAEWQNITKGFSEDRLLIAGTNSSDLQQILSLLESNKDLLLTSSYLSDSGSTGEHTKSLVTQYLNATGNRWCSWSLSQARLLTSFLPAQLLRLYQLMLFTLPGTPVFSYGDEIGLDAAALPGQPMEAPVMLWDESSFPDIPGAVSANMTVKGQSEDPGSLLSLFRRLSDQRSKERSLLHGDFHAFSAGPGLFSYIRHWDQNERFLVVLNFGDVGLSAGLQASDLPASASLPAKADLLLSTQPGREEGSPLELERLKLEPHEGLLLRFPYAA
FLAG-SLC3A2 A273N+D355N (P08195, form named): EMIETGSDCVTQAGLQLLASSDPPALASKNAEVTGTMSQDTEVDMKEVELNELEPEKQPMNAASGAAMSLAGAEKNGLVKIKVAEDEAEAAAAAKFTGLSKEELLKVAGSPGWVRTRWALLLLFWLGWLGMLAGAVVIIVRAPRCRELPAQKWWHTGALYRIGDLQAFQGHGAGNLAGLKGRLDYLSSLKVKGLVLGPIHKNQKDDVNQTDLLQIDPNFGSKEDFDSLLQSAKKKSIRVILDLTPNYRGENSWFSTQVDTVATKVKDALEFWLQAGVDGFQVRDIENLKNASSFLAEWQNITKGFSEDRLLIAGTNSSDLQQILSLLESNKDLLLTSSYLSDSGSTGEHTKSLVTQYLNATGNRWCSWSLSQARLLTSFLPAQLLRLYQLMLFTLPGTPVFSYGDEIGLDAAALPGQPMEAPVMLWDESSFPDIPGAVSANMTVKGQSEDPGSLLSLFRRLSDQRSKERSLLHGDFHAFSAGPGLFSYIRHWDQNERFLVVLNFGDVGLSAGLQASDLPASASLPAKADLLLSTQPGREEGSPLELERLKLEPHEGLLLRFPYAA
FLAG-SLC3A2 N365D (P08195, form named): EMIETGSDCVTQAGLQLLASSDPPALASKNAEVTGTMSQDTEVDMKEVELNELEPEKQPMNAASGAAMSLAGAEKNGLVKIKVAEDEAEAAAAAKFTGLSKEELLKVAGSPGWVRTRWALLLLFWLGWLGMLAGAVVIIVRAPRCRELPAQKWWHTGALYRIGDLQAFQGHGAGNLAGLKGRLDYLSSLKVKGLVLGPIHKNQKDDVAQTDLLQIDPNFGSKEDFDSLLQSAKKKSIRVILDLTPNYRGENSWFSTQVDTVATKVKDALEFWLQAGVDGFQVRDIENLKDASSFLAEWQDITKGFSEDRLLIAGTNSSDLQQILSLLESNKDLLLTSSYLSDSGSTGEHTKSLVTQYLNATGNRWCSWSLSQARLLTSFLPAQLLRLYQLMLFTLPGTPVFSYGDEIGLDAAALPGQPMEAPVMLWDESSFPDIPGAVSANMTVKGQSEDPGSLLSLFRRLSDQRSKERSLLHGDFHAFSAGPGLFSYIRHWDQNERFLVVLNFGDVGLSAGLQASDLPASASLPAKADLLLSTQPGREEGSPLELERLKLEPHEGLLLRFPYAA
FLAG-SLC3A2 N381D (P08195, form named): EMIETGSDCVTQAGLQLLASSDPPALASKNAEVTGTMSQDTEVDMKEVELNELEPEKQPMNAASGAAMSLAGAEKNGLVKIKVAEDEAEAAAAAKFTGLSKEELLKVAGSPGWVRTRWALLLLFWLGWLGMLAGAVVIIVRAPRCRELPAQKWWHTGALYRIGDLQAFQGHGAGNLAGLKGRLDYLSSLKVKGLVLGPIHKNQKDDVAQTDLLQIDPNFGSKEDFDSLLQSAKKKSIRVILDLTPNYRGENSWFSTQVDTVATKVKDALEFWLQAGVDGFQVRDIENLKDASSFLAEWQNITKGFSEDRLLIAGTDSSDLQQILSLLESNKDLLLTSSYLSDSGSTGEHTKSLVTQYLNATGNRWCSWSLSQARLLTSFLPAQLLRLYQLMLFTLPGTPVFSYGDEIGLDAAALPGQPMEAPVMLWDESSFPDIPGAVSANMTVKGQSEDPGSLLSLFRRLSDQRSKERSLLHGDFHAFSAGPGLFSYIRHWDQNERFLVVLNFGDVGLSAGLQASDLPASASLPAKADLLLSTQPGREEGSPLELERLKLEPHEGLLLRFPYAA

Key:
Test in all cases: affinity purification with mass spectrometry
[1] = target: FLAG-SLC3A2 A273N (human) (UniProt P08195)
[2] = target: FLAG-SLC3A2 A273N+D355N (human) (UniProt P08195)
[3] = target: FLAG-SLC3A2 N365D (human) (UniProt P08195)
[4] = target: FLAG-SLC3A2 N381D (human) (UniProt P08195)
[5] = target: FLAG-SLC3A2 WTseq (human) (UniProt P08195)

Measured: binding

B1: Zn++ transporter SLC30A1 (protein, UniProt Q9Y6M5 1-507)
chain: MGCWGRNRGRLLCMLALTFMFMVLEVVVSRVTSSLAMLSDSFHMLSDVLALVVALVAERFARRTHATQKNTFGWIRAEVMGALVNAIFLTGLCFAILLEAIERFIEPHEMQQPLVVLGVGVAGLLVNVLGLCLFHHHSGFSQDSGHGHSHGGHGHGHGLPKGPRVKSTRPGSSDINVAPGEQGPDQEETNTLVANTSNSNGLKLDPADPENPRSGDTVEVQVNGNLVREPDHMELEEDRAGQLNMRGVFLHVLGDALGSVIVVVNALVFYFSWKGCSEGDFCVNPCFPDPCKAFVEIINSTHASVYEAGPCWVLYLDPTLCVVMVCILLYTTYPLLKESALILLQTVPKQIDIRNLIKELRNVEGVEEVHELHVWQLAGSRIIATAHIKCEDPTSYMEVAKTIKDVFHNHGIHATTIQPEFASVGSKSSVVPCELACRTQCALKQCCGTLPQAPSGKDAEKTPAVSISCLELSNNLEKKPRRTKAENIPAVVIEIKNMPNKQPESSL
binds: all assays above
